Results from the supplement of paper PMC12067093, “Discovery and optimisation of a covalent ligand for TRIM25 and its application to targeted protein ubiquitination” (Chemical Science, 2025).
This is one part of the list.

Amino acid sequences for entries named in this document (tags omitted). A change or cut given only in a name is not applied to a line headed by its entry.
UniProt P48553, whole entry, looked up: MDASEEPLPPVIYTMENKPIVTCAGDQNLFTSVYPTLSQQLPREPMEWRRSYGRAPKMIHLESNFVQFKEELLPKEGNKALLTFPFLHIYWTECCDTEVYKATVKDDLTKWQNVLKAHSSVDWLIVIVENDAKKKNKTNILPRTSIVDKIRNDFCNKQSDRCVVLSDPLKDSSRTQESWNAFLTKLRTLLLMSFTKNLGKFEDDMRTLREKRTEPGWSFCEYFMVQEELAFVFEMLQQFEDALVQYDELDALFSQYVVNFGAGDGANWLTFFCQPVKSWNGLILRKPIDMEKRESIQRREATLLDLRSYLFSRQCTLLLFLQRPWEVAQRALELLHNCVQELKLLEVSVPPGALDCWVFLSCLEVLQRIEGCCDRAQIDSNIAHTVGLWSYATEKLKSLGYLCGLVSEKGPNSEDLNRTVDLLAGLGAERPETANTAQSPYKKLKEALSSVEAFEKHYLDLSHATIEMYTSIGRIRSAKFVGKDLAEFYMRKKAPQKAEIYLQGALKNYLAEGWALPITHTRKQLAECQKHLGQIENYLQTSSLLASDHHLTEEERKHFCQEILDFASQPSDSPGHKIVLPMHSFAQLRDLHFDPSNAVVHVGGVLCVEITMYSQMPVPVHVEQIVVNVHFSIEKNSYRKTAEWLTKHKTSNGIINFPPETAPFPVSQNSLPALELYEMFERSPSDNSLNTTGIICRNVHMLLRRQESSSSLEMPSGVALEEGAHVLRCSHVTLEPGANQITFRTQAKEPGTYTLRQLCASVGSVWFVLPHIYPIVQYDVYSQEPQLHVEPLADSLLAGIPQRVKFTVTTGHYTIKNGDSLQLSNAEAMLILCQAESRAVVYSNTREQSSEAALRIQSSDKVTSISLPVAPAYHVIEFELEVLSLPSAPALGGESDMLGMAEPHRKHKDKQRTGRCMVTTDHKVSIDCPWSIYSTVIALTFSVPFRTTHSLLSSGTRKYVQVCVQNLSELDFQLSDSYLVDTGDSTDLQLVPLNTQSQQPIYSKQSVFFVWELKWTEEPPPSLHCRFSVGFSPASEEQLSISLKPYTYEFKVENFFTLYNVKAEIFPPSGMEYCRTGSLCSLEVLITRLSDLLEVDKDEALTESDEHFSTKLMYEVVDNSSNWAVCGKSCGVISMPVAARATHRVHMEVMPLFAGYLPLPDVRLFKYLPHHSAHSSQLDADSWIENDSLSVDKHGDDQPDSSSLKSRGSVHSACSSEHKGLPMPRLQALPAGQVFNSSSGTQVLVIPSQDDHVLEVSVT
UniProt Q7Z2T5: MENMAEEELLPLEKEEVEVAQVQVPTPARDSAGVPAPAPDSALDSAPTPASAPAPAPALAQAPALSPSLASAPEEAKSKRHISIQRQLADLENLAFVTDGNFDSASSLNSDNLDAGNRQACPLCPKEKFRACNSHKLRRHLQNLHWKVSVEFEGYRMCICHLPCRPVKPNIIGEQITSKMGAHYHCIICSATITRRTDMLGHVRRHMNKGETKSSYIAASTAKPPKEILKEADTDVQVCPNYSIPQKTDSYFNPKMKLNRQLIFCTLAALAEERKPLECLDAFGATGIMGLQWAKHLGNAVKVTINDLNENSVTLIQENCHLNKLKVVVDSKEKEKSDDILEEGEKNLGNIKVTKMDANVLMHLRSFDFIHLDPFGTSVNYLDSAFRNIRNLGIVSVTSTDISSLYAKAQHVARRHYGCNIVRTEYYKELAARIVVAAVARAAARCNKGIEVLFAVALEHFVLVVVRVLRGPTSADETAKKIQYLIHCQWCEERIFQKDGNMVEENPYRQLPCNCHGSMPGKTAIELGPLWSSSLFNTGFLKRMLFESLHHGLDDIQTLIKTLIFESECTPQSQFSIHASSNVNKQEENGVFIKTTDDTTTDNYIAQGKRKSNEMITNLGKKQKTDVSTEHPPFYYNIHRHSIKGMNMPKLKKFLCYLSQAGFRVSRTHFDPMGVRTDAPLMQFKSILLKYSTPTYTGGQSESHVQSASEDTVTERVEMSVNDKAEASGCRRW
UniProt P13693: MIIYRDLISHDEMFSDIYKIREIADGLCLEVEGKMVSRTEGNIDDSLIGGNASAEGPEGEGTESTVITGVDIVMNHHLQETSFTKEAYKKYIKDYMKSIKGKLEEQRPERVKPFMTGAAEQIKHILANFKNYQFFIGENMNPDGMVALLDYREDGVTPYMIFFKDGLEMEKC
UniProt O14545: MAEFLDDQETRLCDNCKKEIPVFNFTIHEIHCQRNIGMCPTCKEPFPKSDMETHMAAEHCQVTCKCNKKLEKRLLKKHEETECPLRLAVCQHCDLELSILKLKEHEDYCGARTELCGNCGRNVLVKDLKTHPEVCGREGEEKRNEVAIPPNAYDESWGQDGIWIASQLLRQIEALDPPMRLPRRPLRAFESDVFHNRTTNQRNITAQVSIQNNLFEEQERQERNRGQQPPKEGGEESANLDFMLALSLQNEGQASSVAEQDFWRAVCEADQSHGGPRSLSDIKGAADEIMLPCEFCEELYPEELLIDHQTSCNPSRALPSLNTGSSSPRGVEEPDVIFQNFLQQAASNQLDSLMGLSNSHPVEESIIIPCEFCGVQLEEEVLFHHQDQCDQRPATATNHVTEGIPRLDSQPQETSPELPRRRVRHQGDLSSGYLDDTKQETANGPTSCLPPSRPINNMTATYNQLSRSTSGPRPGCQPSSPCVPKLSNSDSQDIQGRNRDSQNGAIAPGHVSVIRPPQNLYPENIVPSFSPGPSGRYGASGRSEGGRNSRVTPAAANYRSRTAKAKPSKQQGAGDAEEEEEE
UniProt Q4KMQ1: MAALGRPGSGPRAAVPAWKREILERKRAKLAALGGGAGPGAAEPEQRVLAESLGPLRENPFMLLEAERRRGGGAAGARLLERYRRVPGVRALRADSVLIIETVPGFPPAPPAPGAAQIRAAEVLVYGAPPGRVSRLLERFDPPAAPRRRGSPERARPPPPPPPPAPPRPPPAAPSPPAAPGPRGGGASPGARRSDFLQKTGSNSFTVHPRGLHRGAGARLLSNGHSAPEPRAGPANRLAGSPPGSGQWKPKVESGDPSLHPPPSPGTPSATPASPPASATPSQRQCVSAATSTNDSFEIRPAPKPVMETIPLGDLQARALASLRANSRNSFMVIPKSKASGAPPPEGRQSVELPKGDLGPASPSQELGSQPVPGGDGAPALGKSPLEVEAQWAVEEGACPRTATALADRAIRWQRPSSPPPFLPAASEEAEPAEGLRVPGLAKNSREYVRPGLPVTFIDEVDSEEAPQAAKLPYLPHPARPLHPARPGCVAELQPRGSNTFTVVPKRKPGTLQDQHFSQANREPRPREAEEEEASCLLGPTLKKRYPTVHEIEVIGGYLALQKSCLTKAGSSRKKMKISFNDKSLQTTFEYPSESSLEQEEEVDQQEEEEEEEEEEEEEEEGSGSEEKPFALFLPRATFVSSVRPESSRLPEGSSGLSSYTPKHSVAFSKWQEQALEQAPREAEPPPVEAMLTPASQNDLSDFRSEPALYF
UniProt Q96Q05, whole entry, looked up: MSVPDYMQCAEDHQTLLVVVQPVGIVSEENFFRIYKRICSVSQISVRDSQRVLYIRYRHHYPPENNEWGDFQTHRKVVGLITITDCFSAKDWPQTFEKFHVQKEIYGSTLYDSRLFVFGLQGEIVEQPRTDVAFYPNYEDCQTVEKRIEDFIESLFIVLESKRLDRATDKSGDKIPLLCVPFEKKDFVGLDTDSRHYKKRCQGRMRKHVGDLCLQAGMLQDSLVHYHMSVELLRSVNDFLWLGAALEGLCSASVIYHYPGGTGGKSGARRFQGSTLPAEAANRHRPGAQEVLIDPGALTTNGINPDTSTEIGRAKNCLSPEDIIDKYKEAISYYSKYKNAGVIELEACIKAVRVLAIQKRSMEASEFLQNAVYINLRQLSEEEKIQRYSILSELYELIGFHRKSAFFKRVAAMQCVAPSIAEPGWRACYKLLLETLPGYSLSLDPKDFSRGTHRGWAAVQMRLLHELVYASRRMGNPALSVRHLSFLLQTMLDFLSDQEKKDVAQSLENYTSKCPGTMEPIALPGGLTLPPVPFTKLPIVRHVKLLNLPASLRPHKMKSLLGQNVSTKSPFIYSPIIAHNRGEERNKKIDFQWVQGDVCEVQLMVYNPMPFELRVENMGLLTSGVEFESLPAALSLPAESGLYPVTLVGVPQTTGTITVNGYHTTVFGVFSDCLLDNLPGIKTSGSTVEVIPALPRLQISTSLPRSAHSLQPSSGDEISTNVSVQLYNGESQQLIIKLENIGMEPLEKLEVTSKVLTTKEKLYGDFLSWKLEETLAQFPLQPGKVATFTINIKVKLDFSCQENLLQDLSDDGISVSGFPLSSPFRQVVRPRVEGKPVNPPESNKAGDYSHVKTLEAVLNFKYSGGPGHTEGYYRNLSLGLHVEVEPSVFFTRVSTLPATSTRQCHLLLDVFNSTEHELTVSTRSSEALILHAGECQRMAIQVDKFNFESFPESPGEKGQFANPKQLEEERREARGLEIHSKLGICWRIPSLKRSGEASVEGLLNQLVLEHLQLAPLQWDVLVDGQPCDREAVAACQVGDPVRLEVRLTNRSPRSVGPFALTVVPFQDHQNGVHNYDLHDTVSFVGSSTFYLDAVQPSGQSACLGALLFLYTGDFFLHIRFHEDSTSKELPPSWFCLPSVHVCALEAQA
UniProt Q9Y4K3: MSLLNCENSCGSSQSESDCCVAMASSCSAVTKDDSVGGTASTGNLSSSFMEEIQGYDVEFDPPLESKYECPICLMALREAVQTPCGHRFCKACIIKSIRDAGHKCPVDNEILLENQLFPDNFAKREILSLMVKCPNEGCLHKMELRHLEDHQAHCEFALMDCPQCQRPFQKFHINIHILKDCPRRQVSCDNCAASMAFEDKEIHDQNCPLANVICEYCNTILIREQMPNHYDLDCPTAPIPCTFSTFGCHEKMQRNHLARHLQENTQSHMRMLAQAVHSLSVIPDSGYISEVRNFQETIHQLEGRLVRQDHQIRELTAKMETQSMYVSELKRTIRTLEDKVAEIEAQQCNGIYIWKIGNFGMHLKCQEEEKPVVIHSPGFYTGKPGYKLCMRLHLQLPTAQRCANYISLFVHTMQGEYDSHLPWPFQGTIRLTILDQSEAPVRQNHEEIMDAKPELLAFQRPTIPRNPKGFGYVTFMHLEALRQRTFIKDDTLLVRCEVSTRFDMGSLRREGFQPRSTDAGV
UniProt Q9C037: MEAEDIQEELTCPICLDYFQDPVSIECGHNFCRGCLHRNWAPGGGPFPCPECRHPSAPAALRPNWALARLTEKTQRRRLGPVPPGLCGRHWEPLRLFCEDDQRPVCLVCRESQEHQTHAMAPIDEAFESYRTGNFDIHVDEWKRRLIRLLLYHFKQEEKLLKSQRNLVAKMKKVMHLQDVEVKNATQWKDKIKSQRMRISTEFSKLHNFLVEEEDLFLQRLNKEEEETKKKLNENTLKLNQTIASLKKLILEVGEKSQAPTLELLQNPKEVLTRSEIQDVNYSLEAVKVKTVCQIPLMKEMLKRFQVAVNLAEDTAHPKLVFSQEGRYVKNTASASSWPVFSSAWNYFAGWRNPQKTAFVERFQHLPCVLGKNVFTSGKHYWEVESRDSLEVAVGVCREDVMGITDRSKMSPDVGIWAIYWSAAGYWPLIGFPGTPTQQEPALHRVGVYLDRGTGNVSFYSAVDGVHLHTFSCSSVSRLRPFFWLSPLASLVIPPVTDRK
UniProt Q6Q0C0: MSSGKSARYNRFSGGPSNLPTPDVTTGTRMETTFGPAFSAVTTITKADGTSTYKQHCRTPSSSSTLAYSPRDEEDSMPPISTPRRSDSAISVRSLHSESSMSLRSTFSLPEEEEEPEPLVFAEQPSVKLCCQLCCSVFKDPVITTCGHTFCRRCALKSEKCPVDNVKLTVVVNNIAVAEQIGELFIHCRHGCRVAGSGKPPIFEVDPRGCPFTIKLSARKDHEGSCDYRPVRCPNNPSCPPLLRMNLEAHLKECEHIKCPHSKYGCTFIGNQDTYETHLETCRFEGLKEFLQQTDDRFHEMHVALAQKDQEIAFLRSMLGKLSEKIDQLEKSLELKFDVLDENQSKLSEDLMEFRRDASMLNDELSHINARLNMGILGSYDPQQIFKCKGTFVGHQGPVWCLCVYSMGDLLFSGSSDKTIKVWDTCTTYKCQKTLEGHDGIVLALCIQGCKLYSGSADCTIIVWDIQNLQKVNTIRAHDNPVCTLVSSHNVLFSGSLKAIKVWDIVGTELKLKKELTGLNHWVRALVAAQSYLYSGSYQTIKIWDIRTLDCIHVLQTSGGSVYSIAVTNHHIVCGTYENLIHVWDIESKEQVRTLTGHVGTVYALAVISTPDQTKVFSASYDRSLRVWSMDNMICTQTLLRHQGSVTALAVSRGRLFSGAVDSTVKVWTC
UniProt Q13595: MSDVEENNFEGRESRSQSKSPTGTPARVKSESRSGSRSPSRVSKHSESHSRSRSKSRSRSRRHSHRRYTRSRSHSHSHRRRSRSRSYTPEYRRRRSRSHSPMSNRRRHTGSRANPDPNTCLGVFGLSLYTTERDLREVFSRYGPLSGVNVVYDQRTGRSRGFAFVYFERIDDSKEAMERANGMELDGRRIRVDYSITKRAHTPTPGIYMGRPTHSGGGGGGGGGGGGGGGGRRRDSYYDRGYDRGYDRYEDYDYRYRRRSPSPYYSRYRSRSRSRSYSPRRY

Compound: Cc1cc(ccc1-c1ccccc1)C(=O)N1CCCN(CC1)C(=O)CCl [compound 10]
Assay: probe-labelled cysteine peptide fold change vs DMSO (competition) (log2 fold change); higher = less target engagement (more negative = stronger competition)
Conditions: THP-1, incubation time: 4 h
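Note: competitive profiling in live THP-1 cells: cysteine peptides tagged with an iodoacetamide desthiobiotin (IA-DTB) probe, intensity after compound treatment relative to DMSO-treated cells.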

| Target | probe-labelled cysteine peptide fold change (10 µM) | probe-labelled cysteine peptide fold change (50 µM) |
| --- | --- | --- |
| TRIM28_Q13263_229_HEPLVLFCESCDTLTCR (UniProt Q13263) | 0.0282 | -0.0171 |
| TRIM28_Q13263_717_VLLALFCHEPCRPLHQLATDSTFSLDQPGGTLDLTLIR (UniProt Q13263) | -0.0404 | -0.16 |
| TRAPPC10_P48553_1025_WTEEPPPSLHCR (UniProt P48553) | 0.0629 | 0.0659 |
| TRMT1L_Q7Z2T5_491_KIQYLIHCQWCEER (UniProt Q7Z2T5) | -0.0601 | -0.0491 |
| TPT1_P13693_28_IREIADGLCLEVEGK (UniProt P13693) | -0.0801 | 0.0526 |
| TRIM25_Q14258_498_FTYCSQVLGLHCYK (UniProt Q14258) | -1.23 | -2.92 |
| TRIM25_Q14258_176_LREFFCPEHSECICHICLVEHK (UniProt Q14258) | -0.0323 | -0.0765 |
| TRIM33_Q9UPN9_754_GSCGSSGR (UniProt Q9UPN9) | -0.0933 | 0.937 |
| TRIP13_Q15645_14_QALPCVAESPTVHVEVHQR (UniProt Q15645) | -0.252 | -0.19 |
| TRIP12_Q14669_332_TTGSCASTSR (UniProt Q14669) | -0.0703 | -0.446 |
| TRAFD1_O14545_119_TELCGNCGR (UniProt O14545) | 0.656 | 0.496 |
| TRAPPC8_Q9Y2L5_339_KGNTGIIHGACLTLTDHDR (UniProt Q9Y2L5) | 0.0537 | 0.0149 |
| TPRN_Q4KMQ1_399_SPLEVEAQWAVEEGACPR (UniProt Q4KMQ1) | -0.45 | -0.589 |
| TRIM28_Q13263_221_HEPLVLFCESCDTLTCR (UniProt Q13263) | 0.0644 | 0.275 |
| TRIM25_Q14258_122_TCLVCMASFCQEHLQPHFDSPAFQDHPLQPPVR (UniProt Q14258) | -0.131 | -0.275 |
| TRAPPC11_Q7Z392_553_NLINVLMNESPDPEPDCDILAVK (UniProt Q7Z392) | 0.135 | 0.231 |
| TPT1_P13693_28_EIADGLCLEVEGK (UniProt P13693) | -0.12 | 0.0761 |
| TPX2_Q9ULW0_364_ICRDPQTPVLQTK (UniProt Q9ULW0) | 0.0934 | 0.254 |
| TRMT112_Q9UI30_100_TMHHLLLEVEVIEGTLQCPESGR (UniProt Q9UI30) | -0.122 | -0.125 |
| TPP1_O14773_122_CHSVITQDFLTCWLSIR (UniProt O14773) | -0.303 | 0.336 |
| TRIM21_P19474_285_TCAVHITLDPDTANPWLILSEDRR (UniProt P19474) | 0.135 | 0.137 |

| Target | probe-labelled cysteine peptide fold change (10 µM) | probe-labelled cysteine peptide fold change (50 µM) |
| --- | --- | --- |
| TRANK1_O15050_1930_QHGCLLEAAR (UniProt O15050) | -0.0687 | -0.106 |
| TRIT1_Q9H3H1_298_CTLETSNQLLK (UniProt Q9H3H1) | -0.177 | -0.245 |
| TRMT2A_Q8IZ69_260_CEFLVGVGVDGEDNTVGCR (UniProt Q8IZ69) | -0.239 | 0.16 |
| TRAFD1_O14545_90_LAVCQHCDLELSILK (UniProt O14545) | 0.19 | -0.255 |
| TRIM28_Q13263_713_VLLALFCHEPCRPLHQLATDSTFSLDQPGGTLDLTLIR (UniProt Q13263) | 0.362 | 0.0791 |
| TRAPPC9_Q96Q05_415_VAAMQCVAPSIAEPGWR (UniProt Q96Q05) | 0.026 | 0.227 |
| TRAPPC12_Q8WVT3_731_EGDSFNTQCLK (UniProt Q8WVT3) | -0.354 | 0.0207 |
| TRAF6_Q9Y4K3_85_EAVQTPCGHR (UniProt Q9Y4K3) | 0.0336 | 0.019 |
| TRAPPC10_P48553_696_SPSDNSLNTTGIICR (UniProt P48553) | -0.0232 | -0.261 |
| TRAPPC9_Q96Q05_904_QCHLLLDVFNSTEHELTVSTR (UniProt Q96Q05) | 0.181 | 0.0773 |
| TRMT1L_Q7Z2T5_656_KFLCYLSQAGFR (UniProt Q7Z2T5) | -0.549 | -0.635 |
| TRMT1_Q9NXH9_351_QALVFQCVGCGAFHLQR (UniProt Q9NXH9) | 0.0014 | 0.202 |
| TRIM34_Q9BYJ4_239_ELISDVECR (UniProt Q9BYJ4) | -0.253 | -0.494 |
| TRIM24_O15164_134_CPVCSQECAER (UniProt O15164) | -0.00949 | 0.167 |
| TRIM4_Q9C037_293_TVCQIPLMK (UniProt Q9C037) | -0.181 | -0.197 |
| TRIM33_Q9UPN9_150_LLPCLHSFCLR (UniProt Q9UPN9) | -0.137 | -0.537 |
| TRMT1_Q9NXH9_387_FSAACGPPVTPECEHCGQR (UniProt Q9NXH9) | 0.0848 | -0.116 |
| TRAF7_Q6Q0C0_282_YGCTFIGNQDTYETHLETCR (UniProt Q6Q0C0) | 0.477 | 0.396 |
| TRAFD1_O14545_116_TELCGNCGR (UniProt O14545) | 0.0202 | 0.112 |
| TRANK1_O15050_739_KDDKPTLGAGAPDCSEVGEGHAQVGLGALQLVPDDNR (UniProt O15050) | -0.124 | 0.0626 |
| TRAF6_Q9Y4K3_73_YECPICLMALR (UniProt Q9Y4K3) | 0.0869 | 0.0893 |

| Target | probe-labelled cysteine peptide fold change (10 µM) | probe-labelled cysteine peptide fold change (50 µM) |
| --- | --- | --- |
| TRAPPC11_Q7Z392_502_CSYLMAQLK (UniProt Q7Z392) | 0.00419 | 0.439 |
| TRAF2_Q12933_49_RPFQAQCGHR (UniProt Q12933) | 0.0207 | -0.0565 |
| TRIM28_Q13263_232_DCQLNAHK (UniProt Q13263) | 0.032 | -0.219 |
| TRIP4_Q15650_171_LAVLLPGRHPCDCLGQK (UniProt Q15650) | 0.0521 | -0.298 |
| TRMT10C_Q7L0Y3_78_SSVQEECVSTISSSKDEDPLAATR (UniProt Q7L0Y3) | -0.141 | -0.518 |
| TRIM25_Q14258_506_FTYCSQVLGLHCYK (UniProt Q14258) | -1.09 | -4.87 |
| TRAPPC8_Q9Y2L5_1330+1341_SLCLVPVTLLLSNCSK (UniProt Q9Y2L5) | -0.122 | 0.0691 |
| TRAF7_Q6Q0C0_226_DHEGSCDYRPVR (UniProt Q6Q0C0) | -0.0112 | -0.171 |
| TRIM11_Q96F44_236_CQLPALGLLQDIK (UniProt Q96F44) | 0.0308 | 0.288 |
| TRIM32_Q13049_100_IIDTAGLSEAVGLLMCR (UniProt Q13049) | -0.0382 | 0.498 |
| TRIM4_Q9C037_109_LFCEDDQRPVCLVCR (UniProt Q9C037) | 0.00311 | -0.0281 |
| TRMT1L_Q7Z2T5_189_MGAHYHCIICSATITR (UniProt Q7Z2T5) | 0.0491 | 0.249 |
| TRMT10A_Q8TBZ6_285_ACESASHDNQSVR (UniProt Q8TBZ6) | -0.00332 | -0.311 |
| TRIM36_Q9NQ86_160_AATAIMCDLCKPPPQESTK (UniProt Q9NQ86) | -0.431 | -0.979 |
| TRA2A_Q13595_120_ANPDPNTCLGVFGLSLYTTER (UniProt Q13595) | -0.000107 | 0.161 |
| TRAFD1_O14545_83_HEETECPLR (UniProt O14545) | -0.13 | -0.0815 |
| TRMT112_Q9UI30_33_ICPVEFNPNFVAR (UniProt Q9UI30) | -0.0763 | -0.358 |
| TRIM28_Q13263_666+669_VCQKPGDLVMCNQCEFCFHLDCHLPALQDVPGEEWSCSLCHVLPDLK (UniProt Q13263) | 0.0214 | 0.0569 |
| TRMT2A_Q8IZ69_392_CIHEDLLGLTFR (UniProt Q8IZ69) | 0.00498 | -0.18 |
| TRMT1L_Q7Z2T5_265_QLIFCTLAALAEER (UniProt Q7Z2T5) | 0.109 | 0.218 |
| TRIM13_O60858_106_GHLGQPLNIFCLTDMQLICGICATR (UniProt O60858) | 0.0739 | -0.215 |

| Target | probe-labelled cysteine peptide fold change (10 µM) | probe-labelled cysteine peptide fold change (50 µM) |
| --- | --- | --- |
| TRIM56_Q9BRZ2_21_VSHGSSPSLLEALSSDFLACK (UniProt Q9BRZ2) | 0.423 | -0.66 |
| TRAPPC8_Q9Y2L5_1074_HTAIICTSR (UniProt Q9Y2L5) | 0.0487 | 0.328 |
| TRMT1L_Q7Z2T5_164_MCICHLPCRPVKPNIIGEQITSK (UniProt Q7Z2T5) | -0.326 | 0.212 |
| TRIM33_Q9UPN9_849_IEPADMNESCK (UniProt Q9UPN9) | -0.217 | -0.435 |
| TRAP1_Q12931_573_SPAAECLSEKETEELMAWMR (UniProt Q12931) | -0.236 | -0.989 |
| TRAPPC13_A5PLN9_127_LNLSASNAAVAELKPDCCIDDVIHHEVK (UniProt A5PLN9) | -0.131 | -0.00889 |
| TRAPPC11_Q7Z392_615_ADCPHPIR (UniProt Q7Z392) | 0.126 | 0.142 |
| TRABD_Q9H4I3_108_EVQPDVVVVELCQYR (UniProt Q9H4I3) | 0.183 | 0.0345 |
| TPRN_Q4KMQ1_489_LPYLPHPARPLHPARPGCVAELQPR (UniProt Q4KMQ1) | -0.407 | -0.401 |
| TRIM25_Q14258_174+179_LREFFCPEHSECICHICLVEHK (UniProt Q14258) | 0.00201 | -0.362 |
| TRIP12_Q14669_156_TESSCVK (UniProt Q14669) | -0.128 | -0.297 |
| TREX1_Q9NSU2_208_LYGQSPPDSHTAEGDVLALLSICQWRPQALLR (UniProt Q9NSU2) | 0.283 | 0.219 |
| TPP2_P29144_967_GAGPGCYLAGSLTLSK (UniProt P29144) | 0.000606 | -0.0824 |
| TRIP6_Q15654_279+282_LVHDMNHPPSGEYFGQCGGCGEDVVGDGAGVVALDR (UniProt Q15654) | -0.0377 | -0.185 |
| TRIM14_Q14142_151_EQADSCR (UniProt Q14142) | -0.129 | -0.0879 |
| TRIM25_Q14258_186_TCSPASLSQASADLEATLR (UniProt Q14258) | 0.0421 | 0.444 |
| TRIP12_Q14669-3_77_RSCSSSSAVIVPQPEDPDRANTSER (UniProt Q14669) | 0.0506 | -0.279 |
| TRIM33_Q9UPN9_276_KKEDVSESVGASGQRPVFCPVHK (UniProt Q9UPN9) | -0.0301 | -0.148 |
